In patent US20220090089A1 one finds binding data, which are given here for five molecules.

The chains behind the UniProt entries cited, without tags or fusion partners. Residues count along the entry.
UniProt P01732, residues 22-235: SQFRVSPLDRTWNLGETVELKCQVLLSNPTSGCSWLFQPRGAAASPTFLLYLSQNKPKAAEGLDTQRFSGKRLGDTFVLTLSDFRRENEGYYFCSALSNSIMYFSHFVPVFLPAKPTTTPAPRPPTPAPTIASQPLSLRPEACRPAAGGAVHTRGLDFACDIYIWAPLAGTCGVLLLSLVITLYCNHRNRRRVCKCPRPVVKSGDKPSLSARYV

In experiment [1] the target is CD8 on primary human PBMCs / CD8 T cells (human) (UniProt P01732). Description: flow cytometry of phage-stained human PBMCs (lymphocyte gate). (In general: In flow cytometry, cells or beads pass a laser one at a time.)
Experiment [2] shares this target. Description: flow cytometry of phage-stained human PBMCs.

These are yes or no findings as the source states them, for the method shown. Some entries that bind do so weakly or less than the wild type. Where a sequence is shown, tags or fusion partners need not be part of it.

B1: anti-CD8 hashtag phage nanobody PH-B (phagemid pDXinit-CD8Nb(PH-B)-PAC) (VHH, not shown: large carriers; small tags and cut ends)
VHH: QVQLQESGGGSVQPGGSLRLSCAASGFTFDDYAMSWVRQVPGKGLEWVSTINWNGGSAEYAEPVKGRFTISRDNAKNTVYLQMNSLKLEDTAVYYCAKDADLVWYNLSTGQGTQVTVSS
As to B1, the binding result in experiment [1] is “binds”.

B2: anti-CD8 hashtag phage nanobody PH-C (phagemid pDXinit-CD8Nb(PH-C)-PAC) (VHH, not shown: large carriers; small tags and cut ends)
VHH: B1 VHH
For the molecule B2, the binding result in experiment [1] is “binds”.

B3: anti-CD8 hashtag phage nanobody PH-A (phagemid pDXinit-CD8Nb(PH-A)-PAC) (VHH, not shown: large carriers; small tags and cut ends)
VHH: B1 VHH
B3: in experiment [1], the binding entry is “binds”.

B4: PAC-tagged anti-CD8 nanobody-displaying M13 phage (phagemid pDXinit-CD8Nb-PAC) (VHH, not shown: large carriers; small tags and cut ends)
VHH: B1 VHH
B4: the binding result in experiment [2] is “binds”.

B5: anti-CD8 hashtag phage nanobody PH-D (phagemid pDXinit-CD8Nb(PH-D)-PAC) (VHH, not shown: large carriers; small tags and cut ends)
VHH: B1 VHH
Turning to B5, in experiment [1], the binding entry is given as “binds”.
